# Measured values as given in PubChem BioAssay AID445 (National Center for Advancing Translational Sciences (NCATS), 2006).
# This is one part of the list. Further columns of the screen follow, without active or inactive calls. Compounds called inactive in the main read-out are mostly missing here. Words in brackets tell the shape of the fitted curve; partial curves, single points and poor fits give uncertain potencies.
# Assay: IkB Signaling
# Conditions: ABC-DLBCL IkBa-CBG/CBR dual luciferase ratio (green luciferase fused to IkBa over red control in OCI-Ly3 lymphoma cells), 4 h; measured here: control luc red channel unless noted
# Procedure, shortened: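 Luminescence ratio of IκBα-fused green versus native red beetle luciferase in OCI-Ly3 cells, 4 h post-doxycycline with compound; red signal alone, scaled from basal (0%) to zero light (-100%), flagged nonspecific or cytotoxic effects.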
row,SMILES,AC50
1,CCc1ccc(Oc2c(C(F)(F)F)oc3c(CN4CCC(C)CC4)c(O)ccc3c2=O)cc1,"0.251 µM [falling, single point]"
2,O=C(NC1CC1)c1cc2c(s1)-c1ccccc1OC2,"12.6 µM [falling, partial curve]"
3,O=C(Nc1ccc2nc(SCC(=O)N3CCCC3)sc2c1)c1cccc(Br)c1,"31.6 µM [falling, partial curve]"
4,Cc1cc(C)cc(N2C(=O)CSC23C(=O)N(CC(=O)Nc2ccc(F)cc2F)c2ccccc23)c1 (stereo not given),"12.6 µM [falling, partial curve]"
5,CCOCCCN1C(=O)c2[nH]nc(-c3ccccc3O)c2C1c1ccc(CC)cc1 (stereo not given),"15.8 µM [falling, partial curve]"
6,Cc1cc(C)c(C#N)c(SC2CCCCC2=O)n1 (stereo not given),"5.01 µM [falling, full curve, poor fit]"
7,CCc1cccc(NC(=O)Cn2c(=O)n(CC(=O)NCCc3ccccc3)c(=O)c3ccccc32)c1,"10 µM [falling, partial curve]"
8,CC(C)CCn1c(=O)c2sccc2n2c(CCCC(=O)NCCc3ccccc3)nnc12,"39.8 µM [falling, single point]"
9,O=C1CC(c2ccccc2)c2c(n3ncnc3[nH]c2=O)N1 (stereo not given),"5.01 µM [rising, full curve]"
10,COc1cccc(-c2cc(C(=O)Nc3cccc(O)c3)no2)c1,"2 µM [falling, full curve]"
11,COc1cccc(-c2cn3nc(C)c(C)nc3n2)c1,"20 µM [falling, single point]"
12,COc1ccccc1C(=O)N1CCC(c2noc(-c3ccc(S(=O)(=O)N4CCCC4)cc3)n2)CC1,"20 µM [falling, partial curve]"
13,O=C(NCCc1ccc(Cl)cc1)c1ccc(CS(=O)Cc2ccccc2Cl)o1 (stereo not given),"15.8 µM [falling, partial curve]"
14,COc1cc2c(cc1OC)C(C)N(C(=O)C1COc3ccccc3O1)CC2 (stereo not given),"20 µM [falling, partial curve]"
15,c1ccc(-c2csc3nnc(SCc4ccc5c(c4)OCO5)n23)cc1,"25.1 µM [falling, partial curve]"
16,COc1ccc(C(=O)Nc2ccc(-c3ccc(C)o3)cc2)cc1S(=O)(=O)N1CCOCC1,"39.8 µM [rising, single point] [measured here: IkB-luc green channel]"
17,Cn1c(=O)n(C)c2cc(NS(=O)(=O)c3ccc(F)cc3)ccc21,"31.6 µM [rising, partial curve] [measured here: IkB-luc green channel]"
18,COc1cccc(C(=O)Nc2ccc3nc(SCC(=O)N4CCOCC4)sc3c2)c1,"3.98 µM [falling, partial curve]"
19,COc1cc2nc(NCCC(C)C)n3nc(-c4ccccc4)nc3c2cc1OC,"0.1 µM [falling, full curve]"
20,CCCCS(=O)(=O)c1oc(-c2cccs2)nc1S(=O)(=O)c1ccccc1,"3.98 µM [falling, partial curve]"

# An excerpt of these results, bar-delimited:
row | SMILES | AC50
18 | COc1cccc(C(=O)Nc2ccc3nc(SCC(=O)N4CCOCC4)sc3c2)c1 | 3.98 µM [falling, partial curve]
19 | COc1cc2nc(NCCC(C)C)n3nc(-c4ccccc4)nc3c2cc1OC | 0.1 µM [falling, full curve]

# (continued)

row,SMILES,AC50
1,Cc1nn(-c2ccccc2)c(N2CCCC2)c1/C=N/n1cnc2scc(-c3ccccc3)c2c1=O,"6.31 µM [falling, partial curve]"
2,Cc1cc(C)n2c(Nc3ccc(Cl)cc3)c(-c3ccsc3)nc2n1,"12.6 µM [falling, partial curve]"
3,Cc1ccc2c(CN3CCN(C(=O)c4ccc(F)cc4)CC3)cc(=O)oc2c1,"25.1 µM [falling, single point]"
4,Cc1ccc(OCC(=O)N(c2ccc(C)cc2)S(=O)(=O)c2ccc(Cl)cc2)cc1,"31.6 µM [falling, partial curve]"
5,CCOc1ccccc1NC(=O)CSc1nc(=O)[nH]c2c1CCCC2,"12.6 µM [falling, partial curve]"
6,CC(C)(C)c1ccc(C(=O)NCCc2csc3nc(-c4ccccc4F)nn23)cc1,"20 µM [falling, partial curve]"
7,COc1ccc(C2(Nc3cccc(C(=O)O)c3C)C(=O)c3ccccc3C2=O)cc1,"15.8 µM [falling, partial curve]"
8,Cn1nc(-c2ccc(Cl)cc2)c2cc(C(=O)N3CCCC3)sc21,"2.51 µM [falling, full curve, poor fit]"
9,COc1ccc(-c2csc3nc(-c4ccccc4C)oc(=O)c23)cc1OC,"3.16 µM [falling, full curve, poor fit]"
10,Cc1ccccc1CS(=O)(=O)c1nnc([C@H](CC(C)C)NC(=O)OC(C)(C)C)o1,"12.6 µM [falling, partial curve]"
11,COc1ccc(NC(=O)CSc2oc(-c3cccs3)nc2S(=O)(=O)c2ccc(C)cc2)c(OC)c1,"0.316 µM [falling, full curve]"
12,CN(CC(=O)Nc1nc2ccccc2s1)S(=O)(=O)c1ccccc1,"15.8 µM [falling, partial curve]"
13,CCOC(=O)c1c(C)oc2ncnc(N3CCN(c4ccccc4F)CC3)c12,"12.6 µM [falling, partial curve, poor fit]"
14,COc1ccccc1NC(=O)c1ccc(COc2ccccc2OC)o1,"15.8 µM [falling, partial curve]"
15,Cn1c(=O)c2c(-c3ccc(Cl)cc3)n(Cc3ccccc3)cc2n(C)c1=O,"15.8 µM [falling, single point]"
16,COc1ccc(CNC(=O)CSc2nc3ccccc3nc2Cc2ccccc2)cc1,"5.01 µM [falling, partial curve]"
17,COc1cccc(/C=C/c2nc(C#N)c(NCCN(C)C)o2)c1,"31.6 µM [falling, single point]"
18,CN(Cc1ccccc1)C(=O)c1ccc2c(c1)N(Cc1ccccc1F)C(=O)c1ccccc1S2(=O)=O,"12.6 µM [falling, partial curve]"
19,CCCOc1cccc(NC(=O)c2c(-c3ccccc3Cl)noc2C)c1,"15.8 µM [falling, partial curve]"
20,CN(C(=O)CSc1nc2ccc(NC(=O)COc3ccc(Cl)cc3)cc2s1)c1ccccc1,"3.16 µM [falling, full curve]"
